PubChem BioAssay AID504764 – Drosophila RNAi Screening Center – 2011
The deposit covers about 22,000 reagents; below is a random part of those that have a named target and a result. Of all reagents, 403 (1.9%) got an active call. 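Unnormalised raw counts per well; ratio z-scores behind the hit calls and whether each hit raises or lowers signal are not deposited.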 Entries without a mark were called inactive. Names joined by + are all predicted targets of the reagent. Not stated in the record: the amount of reagent.

- Purpose: 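Knock-downs that raise or lower a Notch target reporter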 (primary screen)
- Cell system: Drosophila Kc167 cells
- Reagent: long dsRNA against Drosophila genes
- Timing: about 5 days (4 days dsRNA, then 24 h after transfection)
- Treatment: transfection of constitutively active membrane-tethered Notch lacking the extracellular domain, read 24 h later
- Detection: 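Light from a Notch-responsive E(spl)m3 luciferase reporter under active Notch, with control-promoter and no-Notch reporter wells to normalise; raw counts from paired wells a and b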
- Direction: induced reporter light, run 1, well a and induced reporter light, run 1, well b: higher = more light from the Notch target reporter with active Notch; control promoter light, run 1, well a and control promoter light, run 1, well b: higher = more light from the viral control promoter (cell number, transfection, viability); uninduced reporter light, run 1, well a: higher = more light from the Notch target reporter without active Notch
- Call rule: 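Wells with low control signal or poorly matching duplicates excluded; duplicates averaged; per source plate, z beyond ±2 for induced/control log2 ratio or beyond ±1.8 for induced/uninduced marks a hit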
- Meaning of the calls: active = modifier hit (raised or lowered Notch signal); inactive = not a hit

no.	target gene	amplicon	induced reporter light, run 1, well a	induced reporter light, run 1, well b	control promoter light, run 1, well a	control promoter light, run 1, well b	uninduced reporter light, run 1, well a
1	Orc4	DRSC04634	1.70e5	1.55e5	1.94e5	1.88e5	13160
2	CG18269	DRSC02660	2.05e5	1.73e5	1.77e5	1.51e5	11955
3	c-cup	DRSC00458	1.28e5	1.16e5	1.29e5	1.02e5	11520
4	HisCl1	DRSC14945	1.42e5	1.08e5	82200	91255	10115
5	beta4GalT7	DRSC14385	1.51e5	1.50e5	2.49e5	2.25e5	13680
6	Or98a	DRSC16774	1.27e5	1.33e5	2.12e5	2.07e5	15140
7	CG10383	DRSC02050	1.95e5	2.17e5	1.97e5	2.30e5	14428
8	Ir7a	DRSC17866	88925	77820	1.15e5	1.43e5	7985
9	CG12099	DRSC08253	97540 (active)	1.09e5	1.79e5	2.39e5	10640
10	Su(var)3-3	DRSC10250	98535	91195	51075	51335	8450
11	Rbfox1	DRSC09034	1.46e5	1.25e5	1.16e5	1.61e5	12255
12	Rbfox1	DRSC10157	1.59e5	1.88e5	2.50e5	2.33e5	9985
13	Rbfox1	DRSC10320	1.41e5	1.12e5	79730	94520	7350
14	Spase22-23	DRSC15857	1.34e5	1.35e5	1.51e5	1.65e5	11870
15	LysS	DRSC08677	1.22e5	1.39e5	1.64e5	1.96e5	5195
16	Art7	DRSC04588	2.18e5 (active)	1.90e5	1.23e5	1.53e5	15895
17	St4	DRSC07008	77415	65390	1.14e5	1.04e5	7782
18	CG4594	DRSC02762	2.47e5	2.42e5	2.17e5	2.27e5	16180
19	CG17698	DRSC11907	1.06e5	92730	84775	69900	7820
20	CG10713	DRSC09786	84670 (active)	80650	50830	51000	11160
21	CG42588	DRSC09820	1.45e5	1.40e5	1.66e5	1.15e5	6890
22	Mpcp1	DRSC07337	1.09e5	83935	95105	1.22e5	7955
23	CG16865	DRSC01904	1.39e5	1.74e5	1.66e5	1.70e5	11330
24	CG14881	DRSC15005	2.68e5	2.36e5	2.51e5	2.57e5	18355

The list goes on (7 carried over from the part before).
no.	target gene	amplicon	induced reporter light, run 1, well a	induced reporter light, run 1, well b	control promoter light, run 1, well a	control promoter light, run 1, well b	uninduced reporter light, run 1, well a
18	CG4594	DRSC02762	2.47e5	2.42e5	2.17e5	2.27e5	16180
19	CG17698	DRSC11907	1.06e5	92730	84775	69900	7820
20	CG10713	DRSC09786	84670 (active)	80650	50830	51000	11160
21	CG42588	DRSC09820	1.45e5	1.40e5	1.66e5	1.15e5	6890
22	Mpcp1	DRSC07337	1.09e5	83935	95105	1.22e5	7955
23	CG16865	DRSC01904	1.39e5	1.74e5	1.66e5	1.70e5	11330
24	CG14881	DRSC15005	2.68e5	2.36e5	2.51e5	2.57e5	18355
25	Cib2	DRSC04535	47905	31465	33495	35970	2440
26	CG11841	DRSC14399	2.22e5	2.26e5	3.43e5	3.16e5	15305
27	Cbp53E	DRSC07356	78700	80240	1.19e5	1.44e5	6735
28	CG42568 + DnaJ-60	DRSC04207	2.20e5	2.29e5	1.99e5	1.72e5	14725
29	CG42568 + DnaJ-60	DRSC04611	1.87e5	1.80e5	1.53e5	1.42e5	12355
30	NP15.6	DRSC16756	1.47e5	1.32e5	1.79e5	1.61e5	11380
31	CG14478	DRSC06450	1.36e5	77840	82160	1.00e5	12495
32	Glt	DRSC03333	2.47e5	2.55e5	2.52e5	2.50e5	17980
33	Acsf2	DRSC02172	2.02e5	1.63e5	2.30e5	2.44e5	10860
34	Orp8	DRSC15110	1.88e5	2.00e5	2.00e5	1.64e5	14895
35	Orp8	DRSC15712	1.33e5	1.41e5	1.96e5	1.95e5	10070
36	blot	DRSC09485	2.00e5	2.27e5	2.19e5	2.61e5	21670
37	blot	DRSC11328	99685	1.17e5	72275	69600	7535
38	PIP82	DRSC18694	1.62e5	1.72e5	2.79e5	3.41e5	11605
39	Jhbp6	DRSC11714	1.33e5	1.16e5	1.31e5	97730	8115
40	CG1965	DRSC12577	2.13e5	1.74e5	1.33e5	1.40e5	10800
41	CG3065	DRSC04333	1.22e5	1.57e5	86985	99880	10540
42	CG11726	DRSC09858	3.07e5	2.36e5	3.09e5	2.87e5	16250
43	CG12011	DRSC08219	1.15e5	1.21e5	1.56e5	1.88e5	8550
44	Cpr72Ea	DRSC10451	1.43e5	1.25e5	69820	91655	10140
45	CG30389	DRSC04077	63460	58495	27860	30355	5225
46	CG30389	DRSC04452	54840	40985	42695	42810	2610
47	Hsp70Aa + Hsp70Ab	DRSC21246	54085	47345	64125	67430	6590
48	CG5861	DRSC02907	1.53e5	1.65e5	2.31e5	2.27e5	14975
49	S-Lap3	DRSC10956	98185	73520	74600	22325	9665
50	Jon65Aiii	DRSC10649	1.41e5	1.15e5	75155	27530	13205
